Experimental data as given in US20060030046A1 (TAKARA BIO, published 2006).

Sequences of proteins named here, by UniProt entry; tags and fusion partners are left off. Residues count along the entry.
UniProt P02769, 25-607 limits assumed: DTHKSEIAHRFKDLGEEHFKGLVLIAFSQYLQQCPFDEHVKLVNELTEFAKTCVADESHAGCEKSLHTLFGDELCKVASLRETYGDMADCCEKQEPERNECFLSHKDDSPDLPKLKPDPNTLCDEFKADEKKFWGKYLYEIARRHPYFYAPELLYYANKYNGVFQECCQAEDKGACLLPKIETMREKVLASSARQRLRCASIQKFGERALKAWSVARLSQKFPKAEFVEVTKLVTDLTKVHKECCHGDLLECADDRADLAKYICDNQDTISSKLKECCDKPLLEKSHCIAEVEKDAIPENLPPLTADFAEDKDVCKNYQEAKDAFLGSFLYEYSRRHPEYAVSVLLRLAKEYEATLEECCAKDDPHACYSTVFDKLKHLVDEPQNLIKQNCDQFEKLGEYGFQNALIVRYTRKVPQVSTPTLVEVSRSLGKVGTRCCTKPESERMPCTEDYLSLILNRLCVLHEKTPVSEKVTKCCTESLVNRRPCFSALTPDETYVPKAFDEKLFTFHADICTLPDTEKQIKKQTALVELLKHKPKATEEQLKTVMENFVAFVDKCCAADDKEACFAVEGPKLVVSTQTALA

Molecular target: T1, bovine serum albumin (bovine, UniProt P02769 25-607)
T1 construct: Commercial BSA used to coat control plates; also called BSA; BSA immobilized plate
Assay: CH-296 solution left on a BSA-coated plate, washed, then virus infection of NIH/3T3 cells; G418r colony number similar to that without CH-296 (indirect)

B1: CH-296 (other)
chain: PTDLRFTNIGPDTMRVTWAPPPSIDLTNFLVRYSPVKNEEDVAELSISPSDNAVVLTNLLPGTEYVVSVSSVYEQHESTPLRGRQKTGLDSPTGIDFSDITANSFTVHWIAPRATITGYRIRHHPEHFSGRPREDRVPHSRNSITLTNLTPGTEYVVSIVALNGREESPLLIGQQSTVSDVPRDLEVVAATPTSLLISWDAPAVTVRYYRITYGETGGNSPVQEFTVPGSKSTATISGLKPGVDYTITVYAVTGRGDSPASSKPISINYRTEIDKPSMAIPAPTDLKFTQVTPTSLSAQWTPPNVQLTGYRVRVTPKEKTGPMKEINLAPDSSSVVVSGLMVATKYEVSVYALKDTLTSRPAQGVVTTLENVSPPRRARVTDATETTITISWRTKTETITGFQVDAVPANGQTPIQRTIKPDVRSYTITGLQPGTDYKIYLYTLNDNARSSPVVIDASTAIDAPSNLRFLATTPNSLLVSWQPPRARITGYIIKYEKPGSPPREVVPRPRPGVTEATITGLEPGTEYTIYVIALKNNQKSEPLIGRKKTDELPQLVTLPHPNLHGPEILDVPST
notes: Added in solution at 10, 40 and 250 ug/ml to BSA-coated plates; also called polypeptide CH-296
  binding result: no binding (tested: 10, 40, 250 µg/ml)
